Measurements published in the supplement of paper PMC11150407.
Hit rate of the full screen: of about 3,000 compounds, about 45 (2%) showed an effect of 50% or more. The list shows a part of the results.

system: MOLM1 and UCSD/AML1 (averaged); experiment: cell viability relative to DMSO control (POC); higher = less growth inhibition; conditions: 1 µM; 72 h
Experimental: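 Primary viability screen in the 3q26 EVI1-high AML cell lines MOLM1 and UCSD/AML1, compounds at 1 uM for 72 h. ATP CellTiter-Glo read-out given as percent viable over DMSO control (POC), averaged over duplicates. This mapping covers the TimTec NDL-3000 natural derivative library, whose compounds are identified by TimTec catalogue codes (ST...).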

In order of rising cell viability:
1. COc1cc(C(=O)Nc2ccc3c(c2)ncn3C)cc(OC)c1OC  19%
2. COc1cc(OC)c(C(=O)/C=C/c2ccccc2)c(OC)c1  33%
3. COc1cc(OC)cc([C@@H]2[C@@H](C(=O)C(C)(C)C)N3c4ccccc4C=C[C@@H]3C2(C#N)C#N)c1  79.7%
4. CSc1ccc(Cl)c(C(=O)NCC2(C)CCCC3(C)c4cc(C(C)C)ccc4CCC23)c1 (configuration not stated)  81.9%
5. CC(=O)N1N=C(c2c(-c3ccccc3)c3cc(Br)ccc3[nH]c2=O)CC1c1cccc([N+](=O)[O-])c1 (configuration not stated)  83.2%
6. CCCNC(=O)c1cc(=O)n(CC(=O)Nc2ccc(C)c(F)c2)c2ccccc12  84.2%
7. Cc1ccc2[nH]c(=O)cc(CSc3ncc(-c4ccccc4)n3C)c2c1  84.7%
8. CCSCCN=Cc1c(O)c(O)c(C(C)C)c2cc(C)c(-c3c(C)cc4c(C(C)C)c(O)c(O)c(C=NCCSCC)c4c3O)c(O)c12  85.6%
9. COc1ccccc1C(=O)NCCc1c(C)[nH]c2ccc(OCc3ccccc3)cc12  86%
10. CO[C@H]1[C@@H](OC(C)=O)[C@H](C)[C@H](O)[C@H](C)C(O)[C@@H](C)/C=C/C=C(/C)C(=O)Nc2c(C=NN3CCN(C)CC3)c(O)c3c4c(cc(O)c3c2O)O[C@](C)(O/C=C/[C@@H]1OC)C4=O (some centres not stated)  87.3%
11. Cc1[nH]c2ccccc2c1CCNC(=O)COc1c(F)c(F)cc(F)c1F  87.4%
12. COc1ccc(C2c3[nH]c4ccccc4c3CCN2C(=O)/C=C/c2ccccc2)cc1 (configuration not stated)  87.7%
13. COc1cc(C(=O)N2CCN(Cc3ccc(Cl)cc3)CC2)cc(OC)c1OC  88.6%
14. O=C(Cn1c(=O)cc(C(=O)N2CCCCC2)c2ccccc21)NCc1ccccc1Cl  90%
15. O=C(N[C@@H](CO)C(=O)OCc1ccccc1)OCc1ccccc1  92.2%
16. CCOC(=O)C(Cc1c[nH]c2ccccc12)NC(=O)c1ccccc1C(F)(F)F (configuration not stated)  93.6%
17. COc1ccc(/C=C2\Oc3cc(OC(=O)c4ccc(OC)cc4)ccc3C2=O)cc1  93.9%
18. COc1cc(C(=O)Nc2cccnc2)cc(OC)c1OC  94.2%
19. COc1ccc(/C=C/C(=O)c2ccc3c(c2)OCO3)cc1OC  94.4%
20. NS(=O)(=O)c1ccc(NC(=O)CN2CCc3ccccc3C2)cc1  94.4%
21. Cn1c(=O)c2[nH]c(I)nc2n(C)c1=O  95.4%
22. COc1ccc(C(=O)Nc2ccccc2C(=O)NC(Cc2c[nH]c3ccccc23)C(=O)O)cc1 (configuration not stated)  95.5%
23. O=C1C(=O)N(CC(=O)N2CCc3ccccc3C2)c2ccccc21  95.5%
24. C[C@@H]1C=CC[C@H]2[C@@H]1C(=O)[C@@H]1OC[C@H]2O1  95.6%
25. NC(C/C=C/CC(N)C(=O)O)C(=O)O (configuration not stated)  95.8%
26. O=C(NCCCCCCNC(=O)c1ccc2c(c1)OCCOCCOCCO2)c1ccc2c(c1)OCCOCCOCCO2  96.3%
27. COc1ccc(-c2nc(NC(C)=O)c3c(=O)oc4ccccc4c3n2)cc1  97.6%
28. Cc1cccc(C)c1NC(=O)C1(N(CCc2c[nH]c3ccccc23)C(=O)c2ccccc2Cl)CCCCC1  97.7%
29. N#Cc1cc2c(N)c(C(=O)NCCc3c[nH]c4ccccc34)sc2nc1N  97.7%
30. CCCCc1c(O)c2cc(C(=O)OCC)ccc2[nH]c1=O  97.7%
31. CCOC(=O)CNC(=O)c1ccc(Cl)c([N+](=O)[O-])c1  97.8%
32. CCOc1cc2c(cc1OCC)C(c1ccc3c(c1)OCO3)NCC2 (configuration not stated)  98.1%
33. CCCNC(=O)c1cc(=O)n(CC(=O)Nc2ccccc2Cl)c2ccccc12  98.4%
34. CC(C)C(=O)NCC(=O)NCC(=O)O  98.8%
35. COC(=O)C(N)Cc1cnc[nH]1 (configuration not stated)  98.8%
36. O=C(Cc1cccc(Cl)c1)c1c(O)cc(O)cc1O  99.4%
37. COc1ccccc1NC(=O)CSc1nc2nc(C)cc(C)c2c(=O)[nH]1  99.8%
38. CCOc1cc(C2C(C(=O)OC(C)CC)=C(C)NC3=C2C(=O)CC(c2ccc(Cl)cc2)C3)ccc1O (configuration not stated)  99.9%
39. CCOc1ccccc1-c1nc(CSc2nc3c(=O)[nH]c(C)nc3n2C)c(C)o1  101%
40. O=c1oc2cc(O)ccc2cc1-c1ccccc1Cl  102%
41. CN(Cc1cnc2nc(N)nc(N)c2n1)c1ccc(C(=O)NC(CCC(=O)O)C(=O)O)cc1 (configuration not stated)  102%
42. COc1cccc(CNC(=O)CSc2nc3ccccc3c(=O)[nH]2)c1OC  102%
43. Cc1ccc(C)c(-c2nc(CSc3nc4c(=O)[nH]cnc4n3C)c(C)o2)c1  103%
44. O=C(Cn1c(=O)cc(C(=O)N2CCCCC2)c2ccccc21)Nc1ccc2c(c1)OCCO2  103%
45. Cc1cccc(C)c1NC(=O)COc1cc(O)c2c(=O)cc(-c3ccccc3)oc2c1  103%
46. O=C(CSc1nc2ccccc2c(=O)[nH]1)NCCc1nc2ccccc2[nH]1  104%
47. Cc1ccc(-c2nn(CC(=O)NCCc3c(C)n(C)c4ccccc34)c(=O)c3ccccc23)cc1S(=O)(=O)N1CCCCC1  104%
48. Cc1nc2ccccc2c(C(=O)O)c1C(=O)O  104%
49. COc1ccc(NC(=O)CSc2nc3ccccc3c(=O)[nH]2)cc1Cl  104%
50. CC(=O)NC(Cc1c[nH]c2ccccc12)C(=O)NCCc1ccccc1 (configuration not stated)  105%
51. O=C(Cn1c(=O)cc(C(=O)N2CCCCC2)c2ccccc21)Nc1ccc(F)cc1F  105%
52. CCOC(=O)C(Cc1c[nH]c2ccccc12)NS(=O)(=O)c1ccc(OC)c(-n2cnnn2)c1 (configuration not stated)  105%
53. O=C(NCCCCCCNC(=O)/C(=C\c1ccc2c(c1)OCO2)NC(=O)c1ccccc1)/C(=C\c1ccc2c(c1)OCO2)NC(=O)c1ccccc1  107%
54. CCc1[nH]nc2c1C(c1cc(OC)c(O)c(OC)c1)C(C#N)=C(N)O2 (configuration not stated)  107%
55. COC(=O)C1=C(N)Oc2c(oc(CO)cc2=O)C1c1c(Cl)cccc1Cl (configuration not stated)  108%
56. O=c1oc2cc(O)ccc2cc1-c1ccc(Cl)cc1Cl  108%
57. COC(=O)c1ccc2c(c1)C(=O)/C(=C/c1ccc(OCC(C)C)c(OC)c1)O2  109%
58. COC(=O)CNC(=O)c1ccc(Cl)cc1Cl  109%
59. CCN(CC)C(=O)c1ccc(OCc2ccc3nsnc3c2)c(OC)c1  110%
60. CC(=O)c1ccc(NC(=O)CSc2nc3c(=O)[nH]cnc3n2C)cc1  110%
61. COc1ccc(C(=O)N2CCn3cccc3C2c2ccccc2)cc1OC (configuration not stated)  113%
62. O=C(O)CC(C(=O)O)n1c(O)c(C2=c3cc(Br)ccc3=NC2=O)sc1=S (configuration not stated)  113%
